Test results published in patent US7658727B1, “Implantable medical device with enhanced biocompatibility and biostability” (Medtronic, Inc, priority 1998, dated 2010).

System: human Mo/MØs
Test: Polymer hydroperoxide (ROOH) determination by iodometry after macrophage treatment
Format: cell-based
Settings: AS PEU specimens, Mo/MØs plus DSP at 0.024 and 240 μg/ml
Experimental: Macrophage Treatment. The PEU film specimens (AS and non-AS) in the microwell plates were covered with either freshly isolated human or rabbit monocyte-derived macrophage (Mo/MØs), or human lymphocytes (3×10^5 cells per well) and cultured in a standard media (RPMI-1640, 10% Fetal bovine serum, […], 10 Ul/ml Penicillin-G and 0.1 mg/ml Streptomycin). A 49-day macrophage treatment was conducted under standard conditions (i.e., presence of 5% CO2, and 95% humidity at 37° C.). Other experimental variations included adding dexamethasone sodium phosphate (DSP) at 0.024 μg/ml and 240 μg/ml concentrations to the culture media in the microwells. Two blank conditions were also studied. In one, culture media only was placed into the microwells. The other was prepared with no culture media and stored in the dark. All polymer specimens were incubated for the time of the first treatment. Samples in triplicate were removed after various time periods for hydroperoxide determination. […]
Polymer specimens taken at various time periods during the macrophage treatment step were sonicated for 15 minutes in distilled water, rinsed three times, and dried at 25° C. for 4 hours. […] The resulting triiodide complex (I3^−) was measured spectrophotometrically at 360 nm λ with a Beckman DU-8 spectrophotometer (Beckman Instruments, Irvine, Calif.). […]

C[C@@H]1C[C@H]2[C@@H]3CCC4=CC(=O)C=C[C@]4(C)[C@@]3(F)[C@@H](O)C[C@]2(C)[C@@]1(O)C(=O)COP(=O)(O)O [DSP, dexamethasone sodium phosphate]
hydroperoxide concentration in polymer specimens: significantly lower hydroperoxide concentrations
